Reference: paper PMC8558332

Assays:
MdABI5 (Malus domestica) [1] = assay: competition with a labelled probe; conditions: unlabeled mutant competitor against labeled N1; EMSA as described by Xie et al. (ref. 34); pH and temperature not stated; recombinant protein; label: unlabeled competitor
MdABI5 (Malus domestica) [2] = assay: EMSA; conditions: EMSA as described by Xie et al. (ref. 34), pH and temperature not stated, recombinant protein, label: 3'-biotin
[3] = only MdNRT1.5 complex strongly detected

Sequence | binding result (MdABI5 (Malus domestica) [2]; [3]) | also measured
ACTCAGCCAGACAAATTGACAAACCACAATATTGGATC (double strand) [MdNRT1.5 promoter mutant probe (CACGTA to ACAAAC)] | – | binding result (MdABI5 (Malus domestica) [1]): no binding
ACTCAGCCAGACAAATTGCACGTACACAATATTGGATC (double strand) [MdNRT1.5 promoter ABRE probe] | – | binding result (MdABI5 (Malus domestica) [2]; complex decreases with increasing unlabeled wild-type competitor): binds
GTTTCACCTACTCCCCACACGTTCTATCTCTCCCCC (double strand) [MdNRT1.2 promoter probe] | binds more weakly | –
TATCAAAAGGTCCTTTTCACGTGGGAATCAAATAGCAT (double strand) [MdNRT1.8 promoter probe] | binds more weakly | –
TCGTTTCTGCCAGGTGTTGACACGTGTCCTATTTGATGA (double strand) [MdNRT1.9 promoter probe 1] | binds more weakly | –
TTTCGTTGAGTCACACGCTACGTGTAAAATTTATGTAA (double strand) [MdNRT1.9 promoter probe 2] | binds more weakly | –
TTTGCCACGTGGCACAAATTTGGCTACCACGTCAACTC (double strand) [MdNRT2.4 promoter probe] | binds more weakly | –

Construct, isoform or probe ends are uncertain for at least one entry. For some of these results: A negative result means that nothing was seen under these conditions. For some of these results: Weaker means in comparison with the reference protein, sequence or condition of that experiment. For some of these results: At least one verdict rests on a figure or table, not on a statement of the authors.
